PubChem BioAssay AID1688 (National Center for Advancing Translational Sciences (NCATS), 2009)
In all, about 220,000 compounds went through this assay and about 2,400 (1.1%) were called active. This list was built around the results that the source calls inconclusive (neither active nor inactive); the mix of calls is not that of the screen. The call rests on the fitted dose curve; in most records, active means well fitted inhibition curve with a large enough effect; inconclusive means small, poorly fitted or top-dose-only effect, or effect the other way; inactive means no such curve, though single readings can be large or run the other way. A potency beside an inconclusive call is a rough fit, not a confirmed value.

Test: qHTS Multiplex Assay to Identify Dual Action Probes in a Cell Model of Huntington: Aggregate Formation (GFP); further: nearly all actives have a fitted effect of over 60% in size
Conditions: PC12 HttQ103-GFP aggregates, Acumen cytometry, 40 h; activity change, negative = inhibition: at 46.1 µM (top of the series) unless noted
Outline: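 PC12/HTTQ103-GFP, ecdysone-inducible; teb 100 nM; cpd qHTS titration; GFP aggregates read on laser cytometer, Ex 488/Em 500-530 nm.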
On the % scale 0 is the no-effect control and ±100 the full control effect; potency means the concentration at half of the fitted maximal effect.

| Structure (SMILES) | Potency | activity change, negative = inhibition |
| --- | --- | --- |
| Cc1cn2c(nc1=O)OC1C(O)C(COC(=O)c3ccccc3)OC12 (stereo not given) | inconclusive: 0.794 µM [activator, full curve] | – |
| O=C(CSc1nnnn1-c1cccc2c1CCCC2)NC1CCCC1 | inconclusive: 10 µM [inhibitor, single point] | – |
| Cc1ccc(NS(=O)(=O)c2ccc(Br)s2)cc1S(=O)(=O)N1CCOCC1 | inconclusive: 35.5 µM [inhibitor, single point] | – |
| O=C(NNC(=O)c1cccnc1)NC1CCCCC1 | – | inactive: -17.7% |
| CC(C)c1ccc(S(=O)(=O)/N=C2/C=CC(=O)c3ccccc32)cc1 | inconclusive: 14.1 µM [inhibitor, partial curve, poor fit] | – |
| COc1ccc(OC)c(NC(=O)CSc2ncccn2)c1 | inconclusive: 14.1 µM [activator, partial curve] | – |
| COc1ccc2c(c1)C=C(C(=O)NCc1ccc(Cl)cc1)CO2 | inconclusive: 35.5 µM [inhibitor, single point] | – |
| COc1ccc(CCN2C(=O)NC(NS(=O)(=O)c3ccc(Cl)cc3)(C(F)(F)F)C2=O)cc1OC (stereo not given) | – | inactive: -1.32% |
| C=C1CC2C3CC[C@@]4(OCOC45COCO5)[C@@]3(C)C(O)CC2[C@@]2(C)CCC(=O)C=C12 (stereo not given in full) | inconclusive: 22.4 µM [activator, single point] | – |
| Cc1ccc2[nH]c(O)c(N=NC(=O)CCc3ccccc3)c2c1Br | inconclusive: 2.82 µM [inhibitor, partial curve, poor fit] | – |
| NS(=O)(=O)c1ccc(CCNC(=O)COC(=O)/C=C/c2ccccc2Cl)cc1 | – | inactive: -6.14% |
| Cc1ccc(-c2nnc(SCC#N)n2N)cc1 | – | inactive: -9.6% |
| CCOc1ccc(C(C)NC(=S)NC2CCCCC2)cc1OCC (stereo not given) | inconclusive: 12.6 µM [inhibitor, single point] | – |
| O=C(Nc1ccc(Cl)cc1)Nc1ccc2c(c1)N1CCN=C1S2 | inconclusive: 10 µM [inhibitor, partial curve] | – |
| CC(/C=N/NC(=O)c1n[nH]c2c1CCC2)=C\c1ccccc1 | inconclusive: 3.16 µM [inhibitor, partial curve] | – |
| Cc1nn(-c2ccccc2)c(C)c1/C=N/O | inconclusive: 0.562 µM [inhibitor, partial curve, poor fit] | – |
| CCOC(=O)C1C(c2ccc(OC)c(OC)c2)c2c([nH][nH]c2=O)CC1(C)O (stereo not given) | – | inactive: -8.41% [at 9.22 µM] |
| CCCCOc1cccc(C(=O)NC(=S)Nc2cccc(C(F)(F)F)c2)c1 | inconclusive: 3.98 µM [activator, partial curve] | – |
| O=C(NCCO)C1(c2ccccc2)CCCC1 | inconclusive: 3.16 µM [inhibitor, single point] | – |
| CC(C)=NOc1cc(NC(=O)CCl)cc([N+](=O)[O-])c1 | active: 3.16 µM | – |
| O=S(=O)(CCSc1nc2ccccc2o1)c1nc2ccccc2s1 | inconclusive: 31.6 µM [inhibitor, single point] | – |
| CCOc1ccc(NC(=O)C2CC=CCC2C(=O)O)cc1 (stereo not given) | – | inactive: 8.71% |
| CC1(C)C(C=C(Cl)Cl)C1C(=O)N1CCN(c2ccccc2)CC1 (stereo not given) | inconclusive: 6.31 µM [inhibitor, single point] | – |
| CCCCC(=O)Nc1nc(C)c(-c2csc(Nc3cc(Cl)ccc3OC)n2)s1 | – | inactive: 24.5% |

| Structure (SMILES) | Potency | activity change, negative = inhibition |
| --- | --- | --- |
| Clc1cccc(CN2CCCCCCC2)c1Cl | – | inactive: 11.9% |
| COc1ccc(NC(=O)C23CC4CC(C2)CC(n2cnc(Br)n2)(C4)C3)cc1Cl | inconclusive: 20 µM [inhibitor, partial curve, poor fit] | – |
| Cc1ccc(S(=O)(=O)CC(=O)N(C)C)cc1 | – | inactive: 8.86% |
| CC(=O)/C(CN1CCCCC1)=N\O | inconclusive: 0.631 µM [activator, partial curve, poor fit] | – |
| COc1ccc(NS(=O)(=O)c2cc(NC(=O)c3cccs3)ccc2N2CCCC2)cc1 | – | inconclusive: 41.8% [activator] |
| COc1ccc(/C=N/n2c(SC)nnc2-c2ccccc2)c(OC)c1OC | inconclusive: 35.5 µM [activator, single point] | – |
| O=S(=O)(Nc1ccc2c(c1)OCCO2)c1ccc2oc3ccccc3c2c1 | active: 11.2 µM | – |
| O=C(CCCN1CCN(c2ccccn2)CC1)c1ccc(F)cc1 | – | inactive: 2.74% |
| CCn1c(SCC(=O)Nc2nnc(C)s2)nc2c(c1=O)SC(C)C2 (stereo not given) | inconclusive: 3.16 µM [activator, single point] | – |
| CC(C)NC(=O)CN1CCC(O)(c2ccccc2)CC1 | – | inactive: 6.67% |
| O=C(c1ccc(NS(=O)(=O)c2ccccc2)cc1)N1CCN(Cc2ccc3c(c2)OCO3)CC1 | – | inactive: -18% |
| O=C(CCNc1ccc(F)cc1)c1cccc([N+](=O)[O-])c1 | – | inactive: -14.3% |
| O=C(C1CCN(S(=O)(=O)c2cnc[nH]2)CC1)N1CCN(c2ncccn2)CC1 | inconclusive: 0.316 µM [activator, full curve] | – |
| CC(C)NC(=O)CC(=O)NN=C1CCCCC1 | – | inactive: 2.39% [at 9.22 µM] |
| COc1ccccc1-n1cnc2cc(NCc3ccco3)ccc21 | – | inactive: -4.5% |
| Cc1ccc2c(c1)c(N=O)c(O)n2Cc1ccc(Cl)cc1 | inconclusive: 0.501 µM [activator, partial curve, poor fit] | – |
| Cc1cccc(OCC(=O)NCC(=O)N/N=C/c2ccc([N+](=O)[O-])cc2)c1 | inconclusive: 15.8 µM [inhibitor, partial curve] | – |
| O=C(c1ccc(S(=O)(=O)Cc2ccccc2F)c([N+](=O)[O-])c1)N1CCCCCC1 | – | inactive: -21.6% |
| O=C(Nc1cccc([N+](=O)[O-])c1)Nc1cccc([N+](=O)[O-])c1 | inconclusive: 15.8 µM [inhibitor, single point] | – |
| CCOC(=O)C1=C(C)N=C2SC(C(=O)OC)=CC(=O)N2C1c1ccc(F)cc1 (stereo not given) | inconclusive: 35.5 µM [inhibitor, single point] | – |
| COc1ccc(C(=O)N2c3ccc(F)cc3CCC2C)cc1OC (stereo not given) | – | inactive: 4.08% |
| CC(CSc1nc2ccccc2s1)Cn1c(N2CCCC2)nc2c1c(=O)[nH]c(=O)n2C (stereo not given) | – | inactive: -10.7% |
| CCCn1c(NCc2cc(OC)ccc2OC)nc2ccccc21 | active: 20 µM | – |
| Cc1ccc2[nH]c(=O)c(CN(CC3CCCO3)C(=S)Nc3ccccc3)cc2c1 (stereo not given) | – | inactive: -14.6% |

| Structure (SMILES) | Potency | activity change, negative = inhibition |
| --- | --- | --- |
| CCN1/C(=C\c2ccc3ccccc3[n+]2CC)Sc2cc(C)ccc21 | inconclusive: 2.51 µM [inhibitor, partial curve] | – |
| Cc1ccc(CCNC(=O)C2CCCN(S(=O)(=O)c3cccs3)C2)cc1 (stereo not given) | inconclusive: 15.8 µM [activator, partial curve] | – |
| CC1(C)Cc2c(cnn2-c2ccccc2)-c2c1c1ccccc1n2CC(O)CCl (stereo not given) | inconclusive: 35.5 µM [inhibitor, single point] | – |
| O=C(NN1CCOCC1)c1ccc(Br)s1 | inconclusive: 3.16 µM [activator, partial curve] | – |
| N[C@H](Cc1c[nH]c2ccccc12)C(=O)O | active: 31.6 µM | – |
| CCOC(=O)CN1CC23C=CC(O2)C(C(=O)NCc2ccc(C)cc2)C3C1=O (stereo not given) | – | inactive: 2.57% |
| COCCCNc1nc2ccccc2nc1NS(=O)(=O)c1ccc(C)c(C)c1 | – | inactive: -4.33% [at 9.22 µM] |
| Nc1cc(N)nc(SCc2ccccc2)n1 | – | inactive: 10.2% |
| O=C(O)C1CC=CCC1C(=O)N1CCN(c2nc(-c3ccccc3)c3ccccc3n2)CC1 (stereo not given) | inconclusive: 8.91 µM [activator, partial curve] | – |
| CO[C@H](C(=O)[C@@H](O)[C@@H](C)O)C1Cc2cc3cc(O[C@H]4C[C@@H](O[C@H]5C[C@@H](O)[C@H](O)[C@@H](C)O5)[C@@H](O)[C@@H](C)O4)c(C)c(O)c3c(O)c2C(=O)[C@H]1O[C@H]1C[C@@H](O[C@H]2C[C@@H](O[C@H]3C[C@](C)(O)[C@H](O)[C@@H](C)O3)[C@H](O)[C@@H](C)O2)[C@H](O)[C@@H](C)O1 (stereo not given in full) | active: 0.224 µM | – |
| Cc1ccc(CNC(=O)/C=C/c2ccc(S(=O)(=O)NCc3ccco3)cc2)cc1 | inconclusive: 10 µM [activator, partial curve] | – |
| COc1ccc(C(C(=O)NC2CCCC2)N(Cc2ccccc2)C(=O)c2nsc(Cl)c2Cl)cc1 (stereo not given) | inconclusive: 35.5 µM [inhibitor, single point] | – |
| Cn1c(=O)c2c(nc(Sc3n[nH]c(N)n3)n2Cc2ccccc2Cl)n(C)c1=O | inconclusive: 12.6 µM [activator, single point] | – |
| C=C1C(=O)O[C@@H]2C[C@@H](C)[C@@H]3C=CC(=O)[C@@]3(C)[C@@H](OC(C)=O)[C@H]12 | inconclusive: 3.55 µM [inhibitor, single point] | – |
| O=C(CCc1ccccc1)Nc1nc2n(n1)C(c1ccc(Cl)cc1)CC(=O)N2 (stereo not given) | inconclusive: 1.12 µM [activator, full curve] | – |
| O=C(c1ccccc1)c1ccc2nc(N3CCCCC3)c3nncn3c2c1 | inconclusive: 35.5 µM [inhibitor, single point] | – |
| O=C1c2ccccc2CN1CCSC(=S)N1CCOCC1 | – | inactive: 9.85% |
| COC(=O)C1=C(C)N(CCc2ccc(OC)c(OC)c2)C(=O)/C1=C\c1ccc(O)cc1 | inconclusive: 31.6 µM [activator, single point] | – |
| O=C(COC(=O)CCc1c[nH]c(=O)[nH]1)Nc1cccc(Cl)c1 | inconclusive: 3.55 µM [inhibitor, single point] | – |
| Cc1ccc(NC2=C(NCCO)C(=O)c3ccccc3C2=O)cc1 | – | inactive: -15.9% |
| COc1cccc2cc(C(=O)N3CCN(c4ccc(C)cc4C)CC3)c(=O)oc12 | inconclusive: 17.8 µM [inhibitor, single point] | – |
| COc1cccc(C(=O)NC(=S)Nc2ccc(N(C)C)cc2)c1 | inconclusive: 35.5 µM [activator, single point] | – |

Part of the list above, with each value named.
COC(=O)C1=C(C)N(CCc2ccc(OC)c(OC)c2)C(=O)/C1=C\c1ccc(O)cc1
  Potency: inconclusive: 31.6 µM [activator, single point]
O=C(COC(=O)CCc1c[nH]c(=O)[nH]1)Nc1cccc(Cl)c1
  Potency: inconclusive: 3.55 µM [inhibitor, single point]
Cc1ccc(NC2=C(NCCO)C(=O)c3ccccc3C2=O)cc1
  activity change, negative = inhibition: inactive: -15.9%
COc1cccc2cc(C(=O)N3CCN(c4ccc(C)cc4C)CC3)c(=O)oc12
  Potency: inconclusive: 17.8 µM [inhibitor, single point]

Part of the list above, as tab-separated lines:
Structure (SMILES)	Potency	activity change, negative = inhibition
CO[C@H](C(=O)[C@@H](O)[C@@H](C)O)C1Cc2cc3cc(O[C@H]4C[C@@H](O[C@H]5C[C@@H](O)[C@H](O)[C@@H](C)O5)[C@@H](O)[C@@H](C)O4)c(C)c(O)c3c(O)c2C(=O)[C@H]1O[C@H]1C[C@@H](O[C@H]2C[C@@H](O[C@H]3C[C@](C)(O)[C@H](O)[C@@H](C)O3)[C@H](O)[C@@H](C)O2)[C@H](O)[C@@H](C)O1 (stereo not given in full)	active: 0.224 µM	–
Cc1ccc(CNC(=O)/C=C/c2ccc(S(=O)(=O)NCc3ccco3)cc2)cc1	inconclusive: 10 µM [activator, partial curve]	–
